Results published in patent US8945862B2, “Triple-fusion constructs and methods of monitoring human embryonic stem cells” (The Board of Trustees of the Leland Stanford Junior …, priority 2007, dated 2015).
At least one structure is not confirmed: it was looked up by name or label, or the drawing left a doubt.

System: H9^DF hESCs
Assay: Bioluminescent imaging of transplanted hESC survival under immunosuppressive drug treatment
Format: in vivo, BALB/c mice
Details: single drug treatment groups
Procedure: H1, H9 and H9DF hESCs were initially maintained on top of murine embryonic fibroblasts feeder (MEF) layers as detailed in SI Methods. To prevent contamination of the transplanted hESC population with MEF, hESC colonies were separated from MEF by incubation with dispase (Invitrogen) and subcultured on feeder-free matrigel (hESC qualified, BD Biosciences) coated 6-well plates in mTeSR™ 1 maintenance medium (Stem Cell Technologies) for 2 to 5 passages. MHC expression on hESCs was evaluated by flow cytometry as detailed in SI Methods. Shortly prior to transplantation, hESCs were trypsinated, and resuspended in sterile PBS at 1×10^6 cells per 20 μl. hESC transplantation was performed by direct injection into gastrocnemius muscles of recipient mice (using a 29.5 gauge insulin syringe.
BLI was performed using the Xenogen In Vivo Imaging System as previously described (38). Briefly, mice were anesthetized with isoflurane and D-luciferin was administered intraperitoneally at a dose of 375 mg/kg body weight. At the time of imaging, animals were placed in a light-tight chamber, and photons emitted from luciferase expressing hESCs transplanted into the animals were collected with integration times of 5 sec-5 min, depending on the intensity of the bioluminescence emission. […] BLI signal was quantified in units of photons per second (Total flux) and presented as Log[photons/sec].

CO[C@H]1C[C@@H]2CC[C@@H](C)[C@@](O)(O2)C(=O)C(=O)N2CCCC[C@H]2C(=O)O[C@H]([C@H](C)C[C@@H]2CC[C@@H](O)[C@H](OC)C2)CC(=O)[C@H](C)/C=C(\C)[C@@H](O)[C@@H](OC)C(=O)[C@H](C)C[C@H](C)/C=C/C=C/C=C/1C [SIR, sirolimus]
BLI signal by post-transplant day 10: decreased to background levels
